Consider two substances from article PMC9940370.

Chains of the proteins cited; added tags and fusions are not shown.
UniProt Q9H0U4: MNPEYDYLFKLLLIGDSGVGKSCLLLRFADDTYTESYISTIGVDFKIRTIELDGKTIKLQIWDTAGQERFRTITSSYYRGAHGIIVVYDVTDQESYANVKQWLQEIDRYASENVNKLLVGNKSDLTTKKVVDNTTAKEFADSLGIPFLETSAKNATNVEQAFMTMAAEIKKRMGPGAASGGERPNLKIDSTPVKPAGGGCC
UniProt P07355: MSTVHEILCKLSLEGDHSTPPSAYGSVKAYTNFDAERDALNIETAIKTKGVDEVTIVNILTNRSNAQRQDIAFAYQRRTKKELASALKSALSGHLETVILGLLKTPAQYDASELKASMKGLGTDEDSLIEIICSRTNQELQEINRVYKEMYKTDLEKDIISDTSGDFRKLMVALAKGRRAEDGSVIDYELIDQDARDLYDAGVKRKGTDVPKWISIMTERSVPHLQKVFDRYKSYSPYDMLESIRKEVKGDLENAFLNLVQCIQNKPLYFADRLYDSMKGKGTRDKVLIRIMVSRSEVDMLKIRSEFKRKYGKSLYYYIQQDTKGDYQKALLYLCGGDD

Assay [1] deals with Flag-tagged Rab1b (Flag-Rab1b) (UniProt Q9H0U4). The assay can be described thus: co-IP; lysates of MDA-MB-231 cells stably expressing Flag-tagged proteins (Fig. 5e, Fig. 7b-c); the precipitating antibody is not stated for these panels.
In assay [2] the target is T1, Flag-tagged AQP1 (Flag-AQP1) (human) (UniProt P29972).
T1 sequence: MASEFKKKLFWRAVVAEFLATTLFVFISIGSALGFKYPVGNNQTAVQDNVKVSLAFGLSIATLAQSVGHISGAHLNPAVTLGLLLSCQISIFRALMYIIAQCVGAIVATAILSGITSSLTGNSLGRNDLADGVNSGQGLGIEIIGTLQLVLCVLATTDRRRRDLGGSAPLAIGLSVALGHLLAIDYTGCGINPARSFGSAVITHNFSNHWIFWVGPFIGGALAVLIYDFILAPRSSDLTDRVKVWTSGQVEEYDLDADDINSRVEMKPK
In words: co-IP; whole cell lysates of Flag-AQP1/MDA-MB-231 cells, 500 µg protein with anti-ANXA2 or anti-AQP1 or control IgG at 4 °C overnight, protein A beads, western blot. Background: In western blotting, separated proteins are transferred to a membrane and probed.

Assay [3] deals with T1, Flag-tagged AQP1 (Flag-AQP1) (human). In words: co-IP; Flag immunoprecipitation: cell lysate (IP lysis buffer, protease inhibitors) incubated with anti-flag M2 affinity gel at 4 °C overnight, eluted with 3 × flag peptides, western blot.
The target of assay [4] is Flag-tagged ANXA2 (Flag-ANXA2) (UniProt P07355). In words: co-IP; lysates of MDA-MB-231 cells stably expressing Flag-tagged proteins (Fig. 5e, Fig. 7b-c); the precipitating antibody is not stated for these panels.

These are yes or no findings as the source states them, for the method shown. In cells and extracts the contact can be indirect. Some binding calls cover weakened binding; strength is not graded here. For some assays here: Tags and fused reporters may be left off the sequences shown.

With “ANXA2 (endogenous, MDA-MB-231 cells) (from UniProt P07355 1-339)”, the binding entry in assay [1], in assay [2] and in assay [3] was “binds” throughout.
As to “Rab1b (endogenous, MDA-MB-231 cells) (from UniProt Q9H0U4 1-201)”, the binding entry in assay [4] and in assay [3] was “binds” throughout.
